# Test results taken from PubChem BioAssay AID2685 (National Center for Advancing Translational Sciences (NCATS), 2010).
# About 2,100 (0.66%) of roughly 320,000 compounds were called active. This list was built around the results that the source calls inconclusive (neither active nor inactive); the mix of calls is not that of the screen. Calls come from the whole dose curve; as a rule, active = well fitted inhibition curve with a large enough effect in the signal ratio, with a control signal flat (not every such curve was filed as active); inconclusive = small, poorly fitted or top-dose-only effect, or effect the other way, or a change in a side signal; inactive = flat fitted curve, though single readings scatter; the % refers to the signal ratio. Potencies of inconclusive entries are doubtful fits and often do not repeat.
# Test: qHTS Assay for Lipid Storage Modulators in Drosophila S3 Cells
# Details: BODIPY lipid droplet fluorescence, 18-24 h, cells fed with added oleic acid; lipid storage change, negative = inhibition: at 46.1 µM (top of the series) unless noted
# Procedure, shortened: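 Laser-scanning cytometry quantifies lipid droplet accumulation (500–530 nm total intensity; droplet/cell object ratio) in oleic acid-fed (400 uM added) Drosophila S3 cells treated with a concentration series. 20 uM Triacsin C defined 100% inhibition.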
# % is set by controls: 0 for no effect and ±100 for the full control effect; potency is the fitted concentration of half-maximal effect.
SMILES,Potency,"lipid storage change, negative = inhibition"
COc1ccc(Oc2cc(C)c3cccc(C)c3n2)cc1,"inconclusive: 7.31 µM [activator, partial curve, poor fit]",–
CC1(C)C(c2ccccc2)=[N+]([O-])CN1O,–,inconclusive: -16.7%
COc1ccccc1CC(=O)Nc1ccc([N+](=O)[O-])cc1OC,–,inconclusive: 79.8%
CCCc1nc2ccccc2c(C(=O)OCC(=O)c2ccc3c(c2)NC(=O)CO3)c1CC,"inconclusive: 4.61 µM [falling, full curve, poor fit]",–
COc1ccc(CCNC(=O)c2ccc3c(c2)SC2=NS(=O)(=O)CCN23)cc1,–,inconclusive: 12.2%
COc1ccc(C2C(C(=O)c3ccccc3)=C(C)Nc3nc4ccccc4n32)c(OC)c1 (configuration not stated),–,inconclusive: -3.55%
COc1ccc(CCNC(=O)c2ccccc2NC(=O)C2=C(C)OCCS2)cc1OC,"inconclusive: 29.1 µM [activator, partial curve]",–
COCCNc1nc(-c2ccccc2)nc2ccccc12,–,inactive: 3.19%
O=C(NCCCc1ccccc1)c1ccc(CS(=O)Cc2ccccc2Cl)o1 (configuration not stated),"inconclusive: 6.51 µM [activator, single point]",–
CC(=O)N(C(C)=O)N1C(=O)C2C3c4ccccc4C(c4ccccc43)C2C1=O (configuration not stated),–,inconclusive: -40.6%
Cc1cc(C)cc(NC(=O)CSc2ccc(-c3cccs3)nn2)c1,"inconclusive: 29.1 µM [falling, single point]",–
CCN(C(=O)c1cc2c(=O)[nH]c3ccc(C)cc3c2s1)c1ccccc1F,–,inconclusive: 28.3%
CS(=O)(=O)N(CCc1ccccc1)CC(=O)N1CCN(c2ccc(F)cc2)CC1,–,inconclusive: -21.8%
COc1cccc(OC)c1C(=O)Nc1ccc2c(c1)N(S(=O)(=O)c1cccs1)CCC2,–,inconclusive: 1.97%
CCCCOC(=O)CSCC(=O)Nc1cc(C)on1,–,inconclusive: 0.535%
COc1ccc(NC(=O)c2sc(NC(=O)C3CC3)nc2C)cc1,"inconclusive: 13 µM [falling, single point]",–
CC(=O)c1ccc(N2CCN(C(=O)C3CCN(S(=O)(=O)c4ccc5c(c4)CC(C)N5C(=O)C4CC4)CC3)CC2)cc1 (configuration not stated),–,inconclusive: -14.2%
O=C(O)C1C2CC2CN1C(=O)c1ccc(Cl)cc1Cl (configuration not stated),"inconclusive: 20.6 µM [activator, partial curve]",–
CC[n+]1c(C)n(-c2ccccc2)c2ccc(C(=O)OC)cc21,–,inactive: 0.792%
O=C(OCn1nnc2ccccc2c1=O)C1COc2ccccc2O1 (configuration not stated),–,inconclusive: -2.32%
Cc1cc(=O)c(C(=O)O)nn1-c1ccccc1Cl,"inconclusive: 0.461 µM [falling, partial curve, poor fit]",–
Cc1ccccc1NC(=O)Cn1cnc2c(oc3nc4c(cc32)COC(C)(C)C4)c1=O,–,inconclusive: 33.4%
O=[N+]([O-])c1ccccc1NCCNS(=O)(=O)c1ccc(Cl)cc1,–,inconclusive: 16.9%
COc1ccc(CC(CC(=O)O)C(=O)Nc2ccc(Cl)c(Cl)c2)cc1 (configuration not stated),–,inconclusive: 30.4%
O=C(Nc1ccccn1)c1ccco1,–,inconclusive: 21.3%
Cc1cc(C)n2nc(SCc3cc(=O)oc4cc(O)ccc34)nc2n1,–,inconclusive: 37.8%

# Retrieved one by one from the list above (four):
SMILES,Potency,"lipid storage change, negative = inhibition"
CCCc1nc2ccccc2c(C(=O)OCC(=O)c2ccc3c(c2)NC(=O)CO3)c1CC,"inconclusive: 4.61 µM [falling, full curve, poor fit]",–
O=C(OCn1nnc2ccccc2c1=O)C1COc2ccccc2O1 (configuration not stated),–,inconclusive: -2.32%
O=C(O)C1C2CC2CN1C(=O)c1ccc(Cl)cc1Cl (configuration not stated),"inconclusive: 20.6 µM [activator, partial curve]",–
COc1ccc(CCNC(=O)c2ccc3c(c2)SC2=NS(=O)(=O)CCN23)cc1,–,inconclusive: 12.2%

# Next part

SMILES,Potency,"lipid storage change, negative = inhibition"
CC(=O)/C=C(\C)Nc1ccc(-c2cnc(-c3ccccc3)o2)cc1,–,inconclusive: 35.6%
Cc1ccc(N(CCC#N)C(=O)CCl)cc1C,"inconclusive: 23.1 µM [falling, partial curve]",–
CN1CCN(c2ccccc2NC(=O)c2ccc3c(c2)OCCO3)CC1,–,inconclusive: -100%
O=C(Nc1ccc(F)cc1)c1cccc2c1C(=O)N(Cc1ccccn1)C2,"inconclusive: 1.3 µM [rising, partial curve]",–
CC(=O)N(c1ccccc1Cl)S(=O)(=O)c1ccc(Cl)cc1,–,inconclusive: -3.63%
Cc1ccc(NC(=O)CN(C)Cc2cc(=O)n3ccsc3n2)cc1,–,inconclusive: 20%
Cc1cnc(C(=O)N2CCCC(C(=O)c3cccc(OC(C)C)c3)C2)cn1 (configuration not stated),–,inactive: 2.98%
COc1ccc(NC(=O)CN(C)C(=O)C2=COCCO2)cc1,–,inconclusive: -14%
O=C(OCc1ccccc1)N1CCc2ccccc21,–,inconclusive: 79%
O=S(=O)(Nc1ccc(Cl)cc1)c1cccc2cccnc12,"inconclusive: 6.51 µM [falling, single point]",–
CCOc1ccc(CNC(=O)C2CCCN(S(C)(=O)=O)C2)cc1OC (configuration not stated),–,inconclusive: 4.44%
O=C(Nc1ccc(SC(F)F)cc1)c1cc(-c2ccncc2)nc2ccccc12,"inconclusive: 2.91 µM [activator, partial curve, poor fit]",–
CC(C)(C)OC(=O)N1CC=C2C(C#N)=C(N)C(C#N)(C#N)[C@H](c3cccnc3)[C@H]2C1,"inconclusive: 0.184 µM [activator, full curve, poor fit]",–
CSc1nnc(C2CCN(CC(=O)Nc3ccccc3N3CCOCC3)CC2)n1C,–,inconclusive: 105%
CCOc1cc2nc3c4ccccc4n(C)c3nc2cc1OCC,–,inconclusive: -6.55%
Cc1c(-c2cccs2)[n+](=O)c2c(n1[O-])CCCCC2,"inconclusive: 29.1 µM [activator, single point]",–
COc1ccc(CNc2ccc(C)c(C)c2)cc1,–,inconclusive: -18.3%
C=CCNC(=S)N1CCN(CCN=CC2=C(O)CC(c3cccs3)CC2=O)CC1 (configuration not stated),–,inactive: 3.99%
O=C(NN1CCN(Cc2ccccc2Cl)CC1)c1ccc(Cl)cc1,"inconclusive: 11.6 µM [activator, partial curve, poor fit]",–
Cc1ccccc1C(=O)N1CCC(C(=O)Nc2ccccc2Cl)CC1,–,inconclusive: 47.8%
COc1ccc(CN2CCC(Cc3ccccc3)CC2)c(C)c1C,–,inconclusive: -3.72%
CCCNc1c(NS(=O)(=O)c2ccc(C(C)(C)C)cc2)c(=O)oc2ccccc12,–,inconclusive: 36.6%
Cc1ccc(S(=O)(=O)NC(=O)c2ccc(Br)o2)c(C)c1,–,inconclusive: -1.89%
COc1cc(NC(=O)c2ccco2)c(OC)cc1NC(=O)Nc1cccc(Cl)c1,–,inconclusive: 32.2%
CCOC(=O)c1[nH]c(C)c(C(=O)N2CCN(c3ccccc3)CC2)c1C,"inconclusive: 0.58 µM [activator, full curve, poor fit]",–
CCCCN(CC)C(=O)Cc1cn(C)c2ccccc12,"inconclusive: 18.4 µM [activator, single point]",–

# In another format: entries from further up.
SMILES	Potency	lipid storage change, negative = inhibition
CSc1nnc(C2CCN(CC(=O)Nc3ccccc3N3CCOCC3)CC2)n1C	–	inconclusive: 105%
Cc1ccc(S(=O)(=O)NC(=O)c2ccc(Br)o2)c(C)c1	–	inconclusive: -1.89%
COc1cc(NC(=O)c2ccco2)c(OC)cc1NC(=O)Nc1cccc(Cl)c1	–	inconclusive: 32.2%

# (list continues)

SMILES,Potency,"lipid storage change, negative = inhibition"
C/[N+]([O-])=C/c1c(OCc2ccccc2)ccc2ccccc12,–,inconclusive: 14.8%
CC(C)C[C@H](NC(=O)N1CCn2c1nc1ccccc12)C(=O)NC1CC1,"inconclusive: 0.0046 µM [falling, full curve, poor fit]",–
CCCCOC(=O)c1ccc(NC(=O)CSc2nncn2C)cc1,–,inconclusive: 59.3%
COC(=O)c1cc(=O)c2c([N+](=O)[O-])ccc(OC)c2o1,–,inconclusive: 14.7%
CCOc1ccc(NC(=O)c2cccnc2Cl)c([N+](=O)[O-])c1,–,inconclusive: 2.93%
NC(=O)N1OCC2COc3ccc4ccccc4c3C21 (configuration not stated),–,inconclusive: 3.55%
CC(C)(C)C(=O)CSc1nc2ccccc2o1,–,inconclusive: -9.97%
O=C(CCCNC(=O)c1ccc(Cl)cc1)Nc1ncccc1O,"inconclusive: 18.4 µM [activator, single point]",–
COCCn1c(Cc2cccn2C)nnc1SCC(=O)Nc1nccs1,–,inconclusive: -6.16%
Cc1[nH]c(=O)[nH]c(=O)c1CSc1nnc(CCCCCNC(=O)OC(C)(C)C)o1,–,inconclusive: 4.46%
Cc1ccc2occ(/C=N/NC(=O)c3ccc(O)cc3)c(=O)c2c1,"inconclusive: 29.1 µM [falling, single point]",–
CCCCc1ccc(NC(=O)CSc2nc(=O)n(CCCN3CCOCC3)c3c2CCC3)cc1,–,inactive: -5.03%
COc1ccc(NC(=O)C2CCC(C(C)(C)C)CC2)cc1S(=O)(=O)N1CCOCC1 (configuration not stated),"inconclusive: 2.91 µM [activator, single point]",–
O=C1CC(c2ccco2)CC2=C1C=Nc1ccccc1N2 (configuration not stated),–,inconclusive: 131%
COc1ccc(NC(=O)c2ccc(-c3ccccc3Cl)o2)cc1,"inconclusive: 8.2 µM [activator, partial curve]",–
CC(C)N(C(=O)COC(=O)CNS(=O)(=O)c1ccccc1F)c1ccccc1,–,inconclusive: -58.9%
COc1ccc(-c2nnn(CC(=O)NC3CCCc4ccccc43)n2)cc1OC (configuration not stated),–,inconclusive: 7.51%
COc1ccc(-c2noc(N3CCC(C(=O)Nc4ccccc4F)CC3)n2)cc1,"inconclusive: 4.11 µM [activator, partial curve, poor fit]",–
CC(=O)OC[C@H]1O[C@@H](O/N=C/C[C@@H]2C=C[C@H](OC(C)=O)[C@@H](COC(C)=O)O2)[C@H](OC(C)=O)[C@@H](OC(C)=O)[C@@H]1OC(C)=O,–,inconclusive: 9.37%
COc1cccc(C(=O)Nc2cccc(C(C)=O)c2)c1,–,inconclusive: -8.74%
CSc1nnc(CNS(=O)(=O)c2ccc(F)cc2)n1C,–,inconclusive: 24.5%
Cc1nn2c(N)csc2nc1=O,"inconclusive: 0.231 µM [falling, full curve]",–
Cc1cc(C)c(OCC(O)CN2CCN(C(=O)c3ccccc3)CC2)c(C)c1 (configuration not stated),"inconclusive: 29.1 µM [activator, single point]",–
COc1cc(NC(=O)c2cc(-c3cccc(O)c3)on2)cc(OC)c1OC,–,inconclusive: 7.75% [at 9.22 µM]
O=C(COC(=O)c1cc(=O)[nH]c2ccccc12)NC1CCCC1,–,inconclusive: -48%
